Experimental data from paper PMC12894930.
These are yes or no findings as the source states them, for the method shown. In cells and extracts the contact can be indirect. These calls come from enrichment with a bait or labelling near it, and not all partners need be listed. No binding means not detected with the bait.

Chains of the proteins cited; added tags and fusions are not shown. Residues count along the entry.
UniProt Q15388: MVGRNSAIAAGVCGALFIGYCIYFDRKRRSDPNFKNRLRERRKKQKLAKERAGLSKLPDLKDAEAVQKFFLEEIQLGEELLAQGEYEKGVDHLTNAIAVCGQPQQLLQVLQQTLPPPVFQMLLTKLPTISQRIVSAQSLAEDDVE
UniProt P38646, residues 47-679: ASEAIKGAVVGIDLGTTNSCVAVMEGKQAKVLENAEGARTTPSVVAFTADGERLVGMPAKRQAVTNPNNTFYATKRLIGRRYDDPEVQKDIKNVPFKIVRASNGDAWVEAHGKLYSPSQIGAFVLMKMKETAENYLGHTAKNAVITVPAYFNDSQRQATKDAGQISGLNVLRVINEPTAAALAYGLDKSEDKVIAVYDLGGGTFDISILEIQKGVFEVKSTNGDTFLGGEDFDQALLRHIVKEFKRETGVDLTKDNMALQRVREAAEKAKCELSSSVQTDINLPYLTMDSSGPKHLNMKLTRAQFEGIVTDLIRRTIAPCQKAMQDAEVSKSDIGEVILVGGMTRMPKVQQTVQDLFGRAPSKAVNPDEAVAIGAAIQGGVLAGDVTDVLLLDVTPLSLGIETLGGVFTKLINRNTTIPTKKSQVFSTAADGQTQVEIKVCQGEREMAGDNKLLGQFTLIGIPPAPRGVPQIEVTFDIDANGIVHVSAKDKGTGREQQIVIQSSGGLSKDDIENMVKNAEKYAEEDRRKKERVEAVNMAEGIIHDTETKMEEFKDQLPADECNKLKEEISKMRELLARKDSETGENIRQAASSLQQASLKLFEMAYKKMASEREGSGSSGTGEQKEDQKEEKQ

Experiments:
Assay in all cases: proximity labelling; myc-SHP2-TurboID (WT or mutant) transfected in SHP2 knock-out HEK 293 cells; 100 uM biotin for 10 min at 37 C, without or with 100 ng/mL EGF (for WT also after 4 h with 1 uM TNO155); non-denaturing lysis, streptavidin magnetic beads, LC-MS/MS; hits: log2 fold-change >1 and p <0.05 over a TurboID-only control, or direct comparison of two samples
[1] = biological target: myc-SHP2^T52S-TurboID (human) (UniProt Q06124)
[2] = biological target: myc-SHP2^Q510E-TurboID (human) (UniProt Q06124)
[3] = biological target: myc-SHP2^R138Q-TurboID (human) (UniProt Q06124)
[4] = biological target: myc-SHP2^WT-TurboID (human) (UniProt Q06124)
[5] = biological target: myc-SHP2^T42A-TurboID (human) (UniProt Q06124)
[6] = biological target: myc-SHP2^E139D-TurboID (human) (UniProt Q06124)
[7] = biological target: myc-SHP2^E76K-TurboID (human) (UniProt Q06124)
[8] = biological target: myc-SHP2^Y279C-TurboID (human) (UniProt Q06124)
[9] = biological target: myc-SHP2^T507K-TurboID (human) (UniProt Q06124)
[10] = biological target: myc-SHP2^T468M-TurboID (human) (UniProt Q06124)
[11] = biological target: myc-SHP2^Q510K-TurboID (human) (UniProt Q06124)

Measured: binding

NDUFB8 (from UniProt O95169 29-186)
no binding: all assays above

Tom20 (from UniProt Q15388 1-145)
no binding: [4]

mortalin (HSPA9) (from UniProt P38646 47-679)
no binding: all assays above
